The nature of series [1]: Light fastness of magenta ink jet prints on stabilizer-treated paper, 100% print density, office fluorescent lighting (Example 6). The settings on record: 650-700 mg/m^2 stabilizer.
Series [2] in a line: Light fastness of ink jet prints on stabilizer-treated paper, 50% print density, office fluorescent lighting (Example 7). The settings on record: 650-700 mg/m^2 stabilizer.
A short description of series [3]: Light fastness of ink jet prints on stabilizer-treated paper, 100% print density, office fluorescent lighting (Example 5). The settings on record: 650-700 mg/m^2 stabilizer.
A short description of series [4]: Dark storage of yellow ink jet prints on stabilizer-treated paper (Example 8). The settings on record: 100% print density; dark storage in a file folder in a desk drawer.

In the case of “1-(2-hydroxy-2-methylpropoxy)-2,2,6,6-tetramethyl-4-hydroxypiperidinium citrate [Instant Example 3]”, in series [1], the “DE for magenta after 4 weeks” value amounted to 15.36. Also, in series [2], the “DE for cyan after 4 weeks” value was 6.03, the “DE for magenta after 4 weeks” value is on record as 14.10 and the “DE for yellow after 4 weeks” value was determined as 1.97.

Turning to “1-hydroxy-2,2,6,6-tetramethyl-4-hydroxypiperidinium citrate [Compound A, reference compound]”, in series [3], the “DE for cyan after 4 weeks” value is recorded as 4.85 and the “DE for yellow after 4 weeks” value was 3.80.

As for `CC(C)(O)CON1C(C)(C)CC(O)CC1(C)C` [Instant Example 1, tris(1-(2-hydroxy-2-methylpropoxy)-2,2,6,6-tetramethyl-4-hydroxypiperidinium)citrate], the “DE for cyan after 4 weeks” value is 4.75 in series [3] and 5.80 in series [2]. The “DE for yellow after 4 weeks” value in series [3] was determined as 2.83; in series [4], 0.23; in series [2], 1.35. In addition, the “DE for magenta after 4 weeks” value in series [1] is listed as 18.17; in series [2], 13.53.

Consider `CC(C)(O)CON1C(C)(C)CC(O)CC1(C)C` [Instant Example 2, bis(1-(2-hydroxy-2-methylpropoxy)-2,2,6,6-tetramethyl-4-hydroxypiperidinium)citrate], for which the “DE for cyan after 4 weeks” value in series [3] amounted to 4.43; in series [2], 5.32. Also, the “DE for yellow after 4 weeks” value in series [3] is 3.77; in series [4], 0.12; in series [2], 1.73. The figures for the “DE for magenta after 4 weeks” value in series [1] and in series [2] were 15.60 and 14.04, respectively.

As for `CC(C)(O)CON1C(C)(C)CC(O)CC1(C)C` [Instant Example 4, 1-(2-hydroxy-2-methylpropoxy)-2,2,6,6-tetramethyl-4-hydroxypiperidinium ascorbate], the “DE for magenta after 4 weeks” value in series [1] was 15.62. For the same compound, in series [2], the “DE for cyan after 4 weeks” value was 5.43, the “DE for magenta after 4 weeks” value came to 12.89 and the “DE for yellow after 4 weeks” value was 3.18.
